Values from PubChem BioAssay AID1159584 (Peter MacCallum Cancer Centre, 2016)
Aim: 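Knock-downs that harm CDH1-null cells more than parental MCF10A cells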 (primary screen). Cell system: human MCF10A breast epithelial cells, parental and CDH1-null. Reagent: siRNA against human genes. Measurement: 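ATP luminescence (CellTiter-Glo) viability per line relative to mean mock wells over all plates, and the ratio of CDH1-null to parental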. Scale: CDH1-null / parental viability ratio: higher = CDH1-null cells survive relatively better than parental.
The whole screen tested about 18,000 reagents; shown is an unselected part. Not all columns of the deposit are shown. The record does not give: the amount of reagent, the time to read-out.

How did the screen score CA2?
CDH1-null / parental viability ratio: 0.91

With CNN2, what was measured?
CDH1-null / parental viability ratio: 1.14

With MOSPD2, what was measured?
CDH1-null / parental viability ratio: 1.05

With WDR73, what does the deposit list?
CDH1-null / parental viability ratio: 0.89

For TLN2, what was measured?
CDH1-null / parental viability ratio: 0.66

How did the screen score LEMD1?
CDH1-null / parental viability ratio: 1.11

For TRIM6-TRIM34, what was measured?
CDH1-null / parental viability ratio: 0.94

For COMMD5, how do the results read?
CDH1-null / parental viability ratio: 0.91

With RTN4IP1, how do the results read?
CDH1-null / parental viability ratio: 0.87

How did the screen score BTBD9?
CDH1-null / parental viability ratio: 0.99

How did the screen score NFKBIL1?
CDH1-null / parental viability ratio: 0.95

Look-ups from above:
Under “CDH1-null / parental viability ratio”, WDR73 shows 0.89
LEMD1, CDH1-null / parental viability ratio → 1.11
For “CDH1-null / parental viability ratio”, TLN2 is entered as 0.66

More records follow:
For OR2M7, how do the results read?
CDH1-null / parental viability ratio: 0.88

With STK25, how do the results read?
CDH1-null / parental viability ratio: 0.76

How did the screen score VPS51?
CDH1-null / parental viability ratio: 0.9

For CHML, how do the results read?
CDH1-null / parental viability ratio: 1.23

What is on record for CBX4?
CDH1-null / parental viability ratio: 1

With ROBO2, what does the deposit list?
CDH1-null / parental viability ratio: 1.21

What is on record for SMPD2?
CDH1-null / parental viability ratio: 1.02

With ATP9B, what does the deposit list?
CDH1-null / parental viability ratio: 1.07

For PSMD13, what was measured?
CDH1-null / parental viability ratio: 1.11

What is on record for SPAG7?
CDH1-null / parental viability ratio: 0.95

With SBSN, what does the deposit list?
CDH1-null / parental viability ratio: 0.96

What did the screen give for HERC3?
CDH1-null / parental viability ratio: 1.21

For CFLAR, what was measured?
CDH1-null / parental viability ratio: 2
